Assay results taken from article doi:10.64898/2025.12.18.695023.
Results are given in words; binding and its absence hold for the method and conditions named. In cells and extracts the contact can be indirect. Binding calls can cover weak binding; strength is not graded here.

Chains of the proteins cited; added tags and fusions are not shown. Residues count along the entry.
UniProt Q96J02, 569-903: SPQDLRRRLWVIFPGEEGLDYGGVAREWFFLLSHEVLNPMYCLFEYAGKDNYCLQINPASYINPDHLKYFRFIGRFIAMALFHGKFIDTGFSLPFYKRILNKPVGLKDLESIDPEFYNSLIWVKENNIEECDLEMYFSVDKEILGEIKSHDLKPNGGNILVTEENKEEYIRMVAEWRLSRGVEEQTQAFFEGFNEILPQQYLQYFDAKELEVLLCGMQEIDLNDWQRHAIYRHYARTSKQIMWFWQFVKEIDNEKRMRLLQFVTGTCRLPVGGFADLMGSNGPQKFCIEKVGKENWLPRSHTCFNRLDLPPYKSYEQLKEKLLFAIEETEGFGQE

Target: HECT domain of ITCH (UniProt Q96J02)
Test: pull-down

binding: binds
Substance: HA-tagged N-terminal domain (C2+PRR+WW1/2) of ITCH (from UniProt Q96J02) (domain or fragment)
